Where a name gives a salt, the structure may show the parent alone. The list shows a part of the results. Hit calls seldom repeat between salt and free forms of one compound.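 Kinases, fused to nanoluciferase, were expressed in K562 cells; luminescence was measured every 4 h from 2 to 18 h as percent of control (DMSO = 100%, positive control = 0%). A time point is decreased if signal falls significantly (2 sigma). Hits were called by the authors by a rule that is not shown; the count of time points alone does not decide it.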
How the values were obtained:
Assay in all cases: kinase-Nluc reporter destabilization hit call (1 = scored as downregulated) (binary); higher = compound decreases kinase abundance
Conditions in all cases: K562; 2-18 h
[1] = biological target: RET (UniProt P07949)
[2] = biological target: RET_M918T (clone: RET_mut) (UniProt P07949)
[3] = biological target: RIOK1 (UniProt Q9BRS2)
[4] = biological target: RIPK1 (UniProt Q13546)
[5] = biological target: RIPK2 (UniProt O43353)
[6] = biological target: ROR2 (UniProt Q01974)
[7] = biological target: RPS6KA1 (UniProt Q15418)
[8] = biological target: SPHK1 (UniProt Q9NYA1)
[9] = biological target: SRC (UniProt P12931)
[10] = biological target: STK24 (UniProt Q9Y6E0)

The chains behind the UniProt entries cited, without tags or fusion partners. Where a name states a change or a piece, a line headed by the entry shows the natural chain unless it says otherwise.
UniProt P07949, whole entry, looked up: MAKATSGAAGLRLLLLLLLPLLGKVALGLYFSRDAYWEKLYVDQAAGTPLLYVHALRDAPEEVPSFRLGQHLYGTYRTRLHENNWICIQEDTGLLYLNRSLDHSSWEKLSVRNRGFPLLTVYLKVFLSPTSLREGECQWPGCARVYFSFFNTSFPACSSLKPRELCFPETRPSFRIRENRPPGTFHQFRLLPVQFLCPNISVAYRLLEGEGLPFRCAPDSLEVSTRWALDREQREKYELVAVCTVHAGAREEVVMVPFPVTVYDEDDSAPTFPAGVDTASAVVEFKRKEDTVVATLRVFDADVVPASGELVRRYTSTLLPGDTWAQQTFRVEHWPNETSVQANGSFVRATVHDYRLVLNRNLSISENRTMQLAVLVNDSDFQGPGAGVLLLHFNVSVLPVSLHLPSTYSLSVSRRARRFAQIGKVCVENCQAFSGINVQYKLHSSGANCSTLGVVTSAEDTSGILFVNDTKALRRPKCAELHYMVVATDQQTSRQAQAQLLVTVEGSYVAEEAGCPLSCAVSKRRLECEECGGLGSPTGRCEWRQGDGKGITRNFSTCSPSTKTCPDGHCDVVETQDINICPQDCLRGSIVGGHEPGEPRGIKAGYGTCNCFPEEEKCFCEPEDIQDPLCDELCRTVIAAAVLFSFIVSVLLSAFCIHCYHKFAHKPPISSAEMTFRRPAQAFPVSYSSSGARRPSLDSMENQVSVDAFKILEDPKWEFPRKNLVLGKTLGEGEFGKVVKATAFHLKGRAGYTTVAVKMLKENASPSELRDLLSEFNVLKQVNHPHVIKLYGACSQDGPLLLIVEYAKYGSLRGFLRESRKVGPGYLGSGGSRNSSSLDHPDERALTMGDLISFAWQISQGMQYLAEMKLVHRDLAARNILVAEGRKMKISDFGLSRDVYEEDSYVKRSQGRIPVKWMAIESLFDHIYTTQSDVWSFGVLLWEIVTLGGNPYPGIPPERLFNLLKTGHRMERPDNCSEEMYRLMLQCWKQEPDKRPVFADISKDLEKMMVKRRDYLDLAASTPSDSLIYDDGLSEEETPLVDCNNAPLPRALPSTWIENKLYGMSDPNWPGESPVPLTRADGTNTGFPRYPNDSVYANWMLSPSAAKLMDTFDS
UniProt P07949, whole entry M918T, looked up: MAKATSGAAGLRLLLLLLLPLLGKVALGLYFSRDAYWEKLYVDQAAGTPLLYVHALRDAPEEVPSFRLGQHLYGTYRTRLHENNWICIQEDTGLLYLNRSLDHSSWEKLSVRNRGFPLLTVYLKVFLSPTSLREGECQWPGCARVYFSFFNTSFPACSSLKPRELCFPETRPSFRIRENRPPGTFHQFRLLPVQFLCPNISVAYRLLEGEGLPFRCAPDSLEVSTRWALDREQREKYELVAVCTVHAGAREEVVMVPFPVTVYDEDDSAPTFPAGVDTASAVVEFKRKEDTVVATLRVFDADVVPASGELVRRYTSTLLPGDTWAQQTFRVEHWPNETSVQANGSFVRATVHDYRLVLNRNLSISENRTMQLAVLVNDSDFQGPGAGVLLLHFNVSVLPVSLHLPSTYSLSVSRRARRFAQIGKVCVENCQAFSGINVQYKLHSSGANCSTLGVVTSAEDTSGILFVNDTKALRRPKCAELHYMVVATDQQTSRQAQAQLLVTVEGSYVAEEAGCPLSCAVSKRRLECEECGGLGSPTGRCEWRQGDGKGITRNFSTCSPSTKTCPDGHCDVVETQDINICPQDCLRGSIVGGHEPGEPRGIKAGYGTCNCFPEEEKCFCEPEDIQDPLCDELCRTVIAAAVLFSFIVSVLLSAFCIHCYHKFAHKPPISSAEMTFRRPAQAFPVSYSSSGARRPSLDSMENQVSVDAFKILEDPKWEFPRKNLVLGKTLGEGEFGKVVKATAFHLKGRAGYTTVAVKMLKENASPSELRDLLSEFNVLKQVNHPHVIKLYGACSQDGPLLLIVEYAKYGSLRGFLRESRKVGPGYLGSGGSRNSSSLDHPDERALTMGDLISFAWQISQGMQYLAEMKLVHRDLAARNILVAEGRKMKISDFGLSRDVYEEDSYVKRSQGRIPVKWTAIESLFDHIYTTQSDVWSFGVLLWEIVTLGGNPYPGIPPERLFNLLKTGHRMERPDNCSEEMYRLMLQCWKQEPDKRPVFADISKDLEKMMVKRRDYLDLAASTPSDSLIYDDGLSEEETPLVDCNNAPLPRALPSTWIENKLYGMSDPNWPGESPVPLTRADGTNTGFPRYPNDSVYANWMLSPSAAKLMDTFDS
UniProt Q9BRS2: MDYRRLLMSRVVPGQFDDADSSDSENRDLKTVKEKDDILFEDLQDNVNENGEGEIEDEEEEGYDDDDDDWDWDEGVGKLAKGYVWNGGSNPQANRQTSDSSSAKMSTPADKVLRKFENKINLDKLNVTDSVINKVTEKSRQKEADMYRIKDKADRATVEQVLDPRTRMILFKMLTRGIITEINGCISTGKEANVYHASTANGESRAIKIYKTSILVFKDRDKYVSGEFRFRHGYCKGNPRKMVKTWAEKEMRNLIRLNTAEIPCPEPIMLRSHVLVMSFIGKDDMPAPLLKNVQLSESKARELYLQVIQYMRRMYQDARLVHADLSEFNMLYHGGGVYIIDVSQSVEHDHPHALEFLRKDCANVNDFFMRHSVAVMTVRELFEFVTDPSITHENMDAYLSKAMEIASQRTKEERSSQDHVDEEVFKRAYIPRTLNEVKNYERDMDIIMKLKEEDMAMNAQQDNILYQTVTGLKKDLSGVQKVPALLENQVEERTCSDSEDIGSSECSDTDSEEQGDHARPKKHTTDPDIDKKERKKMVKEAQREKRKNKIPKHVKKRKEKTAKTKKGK
UniProt Q13546: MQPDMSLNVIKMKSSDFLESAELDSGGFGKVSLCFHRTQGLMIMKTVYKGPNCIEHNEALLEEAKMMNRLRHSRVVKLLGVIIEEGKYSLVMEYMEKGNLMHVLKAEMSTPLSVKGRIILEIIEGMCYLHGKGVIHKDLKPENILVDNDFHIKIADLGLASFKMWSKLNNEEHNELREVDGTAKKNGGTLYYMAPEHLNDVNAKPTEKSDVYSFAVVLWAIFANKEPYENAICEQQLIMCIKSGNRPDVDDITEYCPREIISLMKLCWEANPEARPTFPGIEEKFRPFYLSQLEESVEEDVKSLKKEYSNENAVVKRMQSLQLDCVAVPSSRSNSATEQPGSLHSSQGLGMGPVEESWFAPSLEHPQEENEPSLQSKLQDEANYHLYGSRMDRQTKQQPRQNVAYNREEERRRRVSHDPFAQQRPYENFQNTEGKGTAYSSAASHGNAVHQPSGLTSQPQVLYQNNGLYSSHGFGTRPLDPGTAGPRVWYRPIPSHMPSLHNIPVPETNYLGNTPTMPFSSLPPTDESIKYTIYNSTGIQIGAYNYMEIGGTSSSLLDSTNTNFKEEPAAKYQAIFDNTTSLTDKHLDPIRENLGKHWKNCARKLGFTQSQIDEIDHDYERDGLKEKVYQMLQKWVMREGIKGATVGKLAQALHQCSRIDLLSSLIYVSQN
UniProt Q01974, whole entry: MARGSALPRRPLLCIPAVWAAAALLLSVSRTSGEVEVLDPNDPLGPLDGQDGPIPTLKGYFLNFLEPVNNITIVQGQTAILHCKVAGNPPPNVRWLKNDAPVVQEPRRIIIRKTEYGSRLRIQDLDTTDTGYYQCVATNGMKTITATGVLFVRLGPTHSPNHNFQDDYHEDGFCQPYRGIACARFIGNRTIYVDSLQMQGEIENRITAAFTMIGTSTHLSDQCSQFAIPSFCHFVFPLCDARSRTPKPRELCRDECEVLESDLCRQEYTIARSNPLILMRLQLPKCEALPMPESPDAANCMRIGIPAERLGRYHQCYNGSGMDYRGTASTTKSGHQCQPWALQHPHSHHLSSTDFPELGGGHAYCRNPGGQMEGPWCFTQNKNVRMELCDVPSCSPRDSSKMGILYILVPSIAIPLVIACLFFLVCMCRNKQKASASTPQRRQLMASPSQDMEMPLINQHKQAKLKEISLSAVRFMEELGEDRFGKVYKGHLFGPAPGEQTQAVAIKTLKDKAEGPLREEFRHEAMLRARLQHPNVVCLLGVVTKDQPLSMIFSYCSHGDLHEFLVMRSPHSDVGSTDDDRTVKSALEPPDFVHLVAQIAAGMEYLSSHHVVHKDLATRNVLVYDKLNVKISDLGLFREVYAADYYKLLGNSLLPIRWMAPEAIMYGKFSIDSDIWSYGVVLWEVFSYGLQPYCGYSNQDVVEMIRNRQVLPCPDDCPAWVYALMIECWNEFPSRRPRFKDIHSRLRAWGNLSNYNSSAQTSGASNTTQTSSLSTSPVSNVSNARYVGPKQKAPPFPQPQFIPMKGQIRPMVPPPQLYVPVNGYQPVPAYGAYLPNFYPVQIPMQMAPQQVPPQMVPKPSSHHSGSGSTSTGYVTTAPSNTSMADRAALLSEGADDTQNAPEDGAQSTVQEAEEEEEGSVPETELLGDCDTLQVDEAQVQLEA
UniProt Q15418, whole entry: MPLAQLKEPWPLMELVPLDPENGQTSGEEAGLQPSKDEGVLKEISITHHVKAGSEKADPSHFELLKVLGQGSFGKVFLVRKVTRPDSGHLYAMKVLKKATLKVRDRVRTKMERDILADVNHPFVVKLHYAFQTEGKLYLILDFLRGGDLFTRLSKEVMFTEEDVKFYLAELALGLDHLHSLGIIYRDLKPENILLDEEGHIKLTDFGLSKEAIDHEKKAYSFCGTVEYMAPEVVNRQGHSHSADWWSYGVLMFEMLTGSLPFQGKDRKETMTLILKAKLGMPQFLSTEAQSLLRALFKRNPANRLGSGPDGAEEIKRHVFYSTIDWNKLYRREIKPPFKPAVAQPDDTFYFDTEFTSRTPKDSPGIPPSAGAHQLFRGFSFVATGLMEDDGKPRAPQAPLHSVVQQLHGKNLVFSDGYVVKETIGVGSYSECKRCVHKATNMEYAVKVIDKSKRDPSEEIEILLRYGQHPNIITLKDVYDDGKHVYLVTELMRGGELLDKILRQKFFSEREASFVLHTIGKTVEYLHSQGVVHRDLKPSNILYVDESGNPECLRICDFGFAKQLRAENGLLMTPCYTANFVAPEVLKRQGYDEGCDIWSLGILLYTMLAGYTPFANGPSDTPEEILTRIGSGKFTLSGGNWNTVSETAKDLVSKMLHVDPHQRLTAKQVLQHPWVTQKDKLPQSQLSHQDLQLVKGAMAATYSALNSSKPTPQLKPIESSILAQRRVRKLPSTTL
UniProt Q9NYA1, whole entry: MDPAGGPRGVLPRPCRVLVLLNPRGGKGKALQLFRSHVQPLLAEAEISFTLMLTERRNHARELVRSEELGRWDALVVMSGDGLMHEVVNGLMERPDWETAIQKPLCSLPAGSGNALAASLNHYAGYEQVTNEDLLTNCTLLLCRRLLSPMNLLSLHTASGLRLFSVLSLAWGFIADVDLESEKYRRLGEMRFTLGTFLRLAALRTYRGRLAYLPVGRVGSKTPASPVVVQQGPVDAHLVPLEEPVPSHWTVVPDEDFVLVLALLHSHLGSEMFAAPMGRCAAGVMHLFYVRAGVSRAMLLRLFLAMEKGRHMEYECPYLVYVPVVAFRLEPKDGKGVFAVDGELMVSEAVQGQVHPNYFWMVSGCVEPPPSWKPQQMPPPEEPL
UniProt Q9Y6E0: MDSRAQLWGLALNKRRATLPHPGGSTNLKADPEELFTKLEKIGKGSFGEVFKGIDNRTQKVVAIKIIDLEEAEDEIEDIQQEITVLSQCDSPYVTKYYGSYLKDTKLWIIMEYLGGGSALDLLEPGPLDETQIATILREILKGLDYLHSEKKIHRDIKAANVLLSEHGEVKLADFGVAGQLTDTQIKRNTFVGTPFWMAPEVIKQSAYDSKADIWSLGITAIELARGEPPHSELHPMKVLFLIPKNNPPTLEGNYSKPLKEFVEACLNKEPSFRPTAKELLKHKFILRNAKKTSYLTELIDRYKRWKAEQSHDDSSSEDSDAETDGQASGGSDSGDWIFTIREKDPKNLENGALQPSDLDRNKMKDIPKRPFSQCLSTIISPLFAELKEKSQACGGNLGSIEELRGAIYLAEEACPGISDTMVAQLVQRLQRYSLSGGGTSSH

Measured: kinase-Nluc reporter destabilization hit call

O=C(Nc1ccc2[nH]nc(-c3ccncc3)c2c1)[C@@H]1CCN(CC(=O)N2CCN(c3ccc(-c4ncccn4)cc3)CC2)C1 (2.5 µM)
inactive: [1] 0 | [2] 0 | [3] 0 | [4] 0 | [5] 0 | [6] 0 | [7] 0 | [8] 0 | [9] 0 | [10] 0

Cc1csc(-c2nnc(Nc3ccc(Oc4ncccc4-c4ccnc(N)n4)cc3)c3ccccc23)c1 (2.5 µM)
inactive: [1] 0 | [2] 0 | [3] 0 | [4] 0 | [5] 0 | [6] 0 | [7] 0 | [8] 0 | [9] 0 | [10] 0

C[C@]1(O)CCC[C@@H]1n1c(=O)c(C(F)F)cc2cnc(NC3CCN(S(C)(=O)=O)CC3)nc21 (10 µM)
inactive: [1] 0 | [2] 0 | [3] 0 | [4] 0 | [5] 0 | [6] 0 | [7] 0 | [8] 0 | [9] 0 | [10] 0

Cc1ccc(Oc2nc3cc(-c4ccc5c(ccn5C)c4)c(Cl)cc3[nH]2)cc1C(=O)O (10 µM)
inactive: [1] 0 | [2] 0 | [3] 0 | [4] 0 | [5] 0 | [6] 0 | [7] 0 | [8] 0 | [9] 0 | [10] 0

CC1=C2C(=O)O[C@@H](c3ccoc3)[C@]2(C)CCC1 [Fraxinellone] (10 µM)
inactive: [1] 0 | [2] 0 | [3] 0 | [4] 0 | [5] 0 | [6] 0 | [7] 0 | [8] 0 | [9] 0 | [10] 0

C[C@@H]1O[C@@H](O[C@H]2[C@H](Oc3cc(O)c4c(=O)cc(-c5ccc(O)cc5)oc4c3)O[C@H](CO)[C@@H](O)[C@@H]2O)[C@H](O)[C@H](O)[C@H]1O [Rhoifolin] (10 µM)
inactive: [1] 0 | [2] 0 | [3] 0 | [4] 0 | [5] 0 | [6] 0 | [7] 0 | [8] 0 | [9] 0 | [10] 0

COc1ccc([C@H]2c3[nH]c4ccc(Cl)cc4c3CCN2C(=O)Oc2ccc(Cl)cc2)cc1 (2.5 µM)
inactive: [1] 0 | [2] 0 | [3] 0 | [4] 0 | [5] 0 | [6] 0 | [7] 0 | [8] 0 | [9] 0 | [10] 0

CN(C)CCN(Cc1ccc(Cl)cc1)c1ccccn1 [Chloropyramine hydrochloride] (10 µM)
inactive: [1] 0 | [2] 0 | [3] 0 | [4] 0 | [5] 0 | [6] 0 | [7] 0 | [8] 0 | [9] 0 | [10] 0

O=C1NC(=O)/C(=C/c2ccc3c(c2)OC(F)(F)O3)S1 (10 µM)
inactive: [1] 0 | [2] 0 | [3] 0 | [4] 0 | [5] 0 | [6] 0 | [7] 0 | [8] 0 | [9] 0 | [10] 0

CS(=O)(=O)c1ccc(-c2cnc(N)c(C(=O)Nc3ccccc3)n2)cc1 (10 µM)
inactive: [1] 0 | [2] 0 | [3] 0 | [4] 0 | [5] 0 | [6] 0 | [7] 0 | [8] 0 | [9] 0 | [10] 0

O=C(NCCO)c1ccc2c(c1)nc(Nc1cccc(Cl)c1)c1ccncc12 [CK2 inhibitor 2] (10 µM)
inactive: [1] 0 | [2] 0 | [3] 0 | [4] 0 | [5] 0 | [6] 0 | [7] 0 | [8] 0 | [9] 0 | [10] 0

Nc1ncc(-c2cccc(N3CCNCC3)c2)cc1C(=O)Nc1ccncc1 [PKC-iota inhibitor 1] (10 µM)
inactive: [1] 0 | [2] 0 | [3] 0 | [4] 0 | [5] 0 | [6] 0 | [7] 0 | [8] 0 | [9] 0 | [10] 0

CN1CCN(c2ccc(Nc3ncc4nc(Nc5ccccc5)n([C@@H]5CCN(S(=O)(=O)C6CC6)C5)c4n3)cc2)CC1 (2.5 µM)
inactive: [1] 0 | [2] 0 | [3] 0 | [4] 0 | [5] 0 | [6] 0 | [7] 0 | [8] 0 | [9] 0 | [10] 0

COc1ccc(C(=C2C(=O)Nc3ccccc32)c2ccc(OC)cc2)cc1 (10 µM)
inactive: [1] 0 | [2] 0 | [3] 0 | [4] 0 | [5] 0 | [6] 0 | [7] 0 | [8] 0 | [9] 0 | [10] 0

CN1C(=O)C(Cc2c[nH]c3ccccc23)NC1=S (stereo not given) [Necrostatin-1] (10 µM)
inactive: [1] 0 | [2] 0 | [3] 0 | [4] 0 | [5] 0 | [6] 0 | [7] 0 | [8] 0 | [9] 0 | [10] 0

CS(=O)(=O)c1ccc(-c2noc(C(F)(F)F)c2-c2ccccc2)cc1 (10 µM)
inactive: [1] 0 | [2] 0 | [3] 0 | [4] 0 | [5] 0 | [6] 0 | [7] 0 | [8] 0 | [9] 0 | [10] 0

c1cc2c(cc1O[C@H]1OC[C@H]3[C@@H]1CO[C@@H]3c1ccc3c(c1)OCO3)OCO2 [Sesamolin] (10 µM)
inactive: [1] 0 | [2] 0 | [3] 0 | [4] 0 | [5] 0 | [6] 0 | [7] 0 | [8] 0 | [9] 0 | [10] 0

CC1CN(C(=O)Nc2ccc(Cl)c(Cl)c2)C(=Nc2ccc(F)cc2)S1 (stereo not given) (10 µM)
inactive: [1] 0 | [2] 0 | [3] 0 | [4] 0 | [5] 0 | [6] 0 | [7] 0 | [8] 0 | [9] 0 | [10] 0

OCCNC1CCCc2c1[nH]c1ccc(-c3ccccc3)cc21 (stereo not given) (2.5 µM)
inactive: [1] 0 | [2] 0 | [3] 0 | [4] 0 | [5] 0 | [6] 0 | [7] 0 | [8] 0 | [9] 0 | [10] 0

CC(C)(C)NC(=O)c1cncn1C1CCN(c2ccc(-c3nnc(C(F)(F)F)o3)cn2)CC1 (10 µM)
inactive: [1] 0 | [2] 0 | [3] 0 | [4] 0 | [5] 0 | [6] 0 | [7] 0 | [8] 0 | [9] 0 | [10] 0

Cn1cc(Nc2nccc(N3C[C@H]4CC[C@@H](C3)N4C(=O)[C@@H]3CC3(F)F)n2)cn1 (10 µM)
inactive: [1] 0 | [2] 0 | [3] 0 | [4] 0 | [5] 0 | [6] 0 | [7] 0 | [8] 0 | [9] 0 | [10] 0

Cn1nccc1Nc1nccc(-c2cc3c(s2)C(C)(C)N(CCN2CCOCC2)C3=O)n1 (10 µM)
inactive: [1] 0 | [2] 0 | [3] 0 | [4] 0 | [5] 0 | [6] 0 | [7] 0 | [8] 0 | [9] 0 | [10] 0

CC(c1ccc(-c2cnc3c(-c4ccc(S(N)(=O)=O)c5ccccc45)cnn3c2)cc1)N1CCCC1 (stereo not given) (2.5 µM)
inactive: [1] 0 | [2] 0 | [3] 0 | [4] 0 | [5] 0 | [6] 0 | [7] 0 | [8] 0 | [9] 0 | [10] 0

COc1cc(N2CCN(C)CC2)ccc1Nc1ncc2c(n1)N(C1CCC1)C(=O)N(c1c(C)cccc1C)C2 (2.5 µM)
inactive: [1] 0 | [2] 0 | [3] 0 | [4] 0 | [5] 0 | [6] 0 | [7] 0 | [8] 0 | [9] 0 | [10] 0

C=C1C(=O)O[C@@H]2C[C@@]3(C)CCC[C@H](C)C3=C[C@H]12 [Alantolactone] (10 µM)
inactive: [1] 0 | [2] 0 | [3] 0 | [4] 0 | [5] 0 | [6] 0 | [7] 0 | [8] 0 | [9] 0 | [10] 0

Cc1ccc(-c2c(C(=O)CF)n(CCCO)c3ncnc(N)c23)cc1 (10 µM)
inactive: [1] 0 | [2] 0 | [3] 0 | [4] 0 | [5] 0 | [6] 0 | [7] 0 | [8] 0 | [9] 0 | [10] 0

COc1ccc(Cn2cc(C(=O)N=Nc3c(O)[nH]c4c(C)cccc34)nn2)cc1 [MARK4 inhibitor 1] (10 µM)
inactive: [1] 0 | [2] 0 | [3] 0 | [4] 0 | [5] 0 | [6] 0 | [7] 0 | [8] 0 | [9] 0 | [10] 0

COCCO[C@@H]1[C@H](O)[C@@H](CO)O[C@H]1n1cnc2c(=O)[nH]c(N)nc21 [2′-O-(2-Methoxyethyl)guanosine] (10 µM)
inactive: [1] 0 | [2] 0 | [3] 0 | [4] 0 | [5] 0 | [6] 0 | [7] 0 | [8] 0 | [9] 0 | [10] 0

Cc1ccc(-c2c(C(=O)CCl)n(CCCO)c3ncnc(N)c23)cc1 (10 µM)
inactive: [1] 0 | [2] 0 | [3] 0 | [4] 0 | [5] 0 | [6] 0 | [7] 0 | [8] 0 | [9] 0 | [10] 0

Grouped by structure: those above containing a CF3 group.
CS(=O)(=O)c1ccc(-c2noc(C(F)(F)F)c2-c2ccccc2)cc1 (10 µM)
inactive: [1] 0 | [2] 0 | [3] 0 | [4] 0 | [5] 0 | [6] 0 | [7] 0 | [8] 0 | [9] 0 | [10] 0

CC(C)(C)NC(=O)c1cncn1C1CCN(c2ccc(-c3nnc(C(F)(F)F)o3)cn2)CC1 (10 µM)
inactive: [1] 0 | [2] 0 | [3] 0 | [4] 0 | [5] 0 | [6] 0 | [7] 0 | [8] 0 | [9] 0 | [10] 0
